Binding data for one molecule are collected here from PMC7515728, “YdiV regulates Escherichia coli ferric uptake by manipulating the DNA-binding ability of Fur in a SlyD-dependent manner” (Nucleic Acids Research, 2020).

The chains behind the UniProt entries cited, without tags or fusion partners.
UniProt P0A9K9: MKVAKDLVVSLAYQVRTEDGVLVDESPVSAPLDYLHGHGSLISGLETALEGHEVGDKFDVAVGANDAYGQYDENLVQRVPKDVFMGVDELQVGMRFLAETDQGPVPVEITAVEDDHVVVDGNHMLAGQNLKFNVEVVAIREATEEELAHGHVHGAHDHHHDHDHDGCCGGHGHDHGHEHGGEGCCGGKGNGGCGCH

The target in the assay is SlyD in the bacterial two-hybrid plasmid pKNT25-slyD (Escherichia coli) (UniProt P0A9K9). Briefly: two-hybrid; bacterial two-hybrid by reconstitution of adenylate cyclase (T18/T25) in E. coli BTH101; LB-X-Gal plates and β-galactosidase assay (Miller method).

These are yes or no findings as the source states them, for the method shown.

B1: YdiV in the bacterial two-hybrid plasmid pCH363-ydiV (protein, UniProt P76204 1-237)
chain: MKIFLENLYHSDCYFLPIRDNQQVLVGVELITHFSSEDGTVRIPTSRVIAQLTEEQHWQLFSEQLELLKSCQHFFIQHKLFAWLNLTPQVATLLLERDNYAGELLKYPFIELLINENYPHLNEGKDNRGLLSLSQVYPLVLGNLGAGNSTMKAVFDGLFTRVMLDKSFIQQQITHRSFEPFIRAIQAQISPCCNCIIAGGIDTAEILAQITPFDFHALQGCLWPAVPINQITTLVQR
Consider B1, for which the binding entry is recorded as “no binding”.
